In publication PMC8184782 (Nature Communications, 2021):
Results are given in words; binding and its absence hold for the method and conditions named. Some entries that bind do so weakly or less than the wild type.

Target: MLKL K219R, mouse, expressed from the endogenous Mlkl locus of knock-in mice (mouse (endogenous in MDFs)) (UniProt Q9D2Y4)
Assay: native gel or EMSA; Blue native PAGE (4-16% Bis-Tris) of cytoplasmic and membrane fractions (digitonin) of MDFs treated with TSZ for 2.5 h or left untreated; immunoblot for MLKL

binding: binds weakly
B1: MLKL K219R, mouse, expressed from the endogenous Mlkl locus of knock-in mice (protein, UniProt Q9D2Y4-2 1-464)
chain: MDKLGQIIKLGQLIYEQCEKMKYCRKQCQRLGNRVHGLLQPLQRLQAQGKKNLPDDITAALGRFDEVLKEANQQIEKFSKKSHIWKFVSVGNDKILFHEVNEKLRDVWEELLLLLQVYHWNTVSDVSQPASWQQEDRQDAEEDGNENMKVILMQLQISVEEINKTLKQCSLKPTQEIPQDLQIKEIPKEHLGPPWTKLKTSKMSTIYRGEYHRSPVTIRVFNNPQAESVGIVRFTFNDEIKTMKKFDSPNILRIFGICIDQTVKPPEFSIVMEYCELGTLRELLDREKDLTMSVRSLLVLRAARGLYRLHHSETLHRNISSSSFLVAGGYQVKLAGFELSKTQNSISRTAKSTKAERSSSTIYVSPERLKNPFCLYDIKAEIYSFGIVLWEIATGKIPFEGCDSKKIRELVAEDKKQEPVGQDCPELLREIINECRAHEPSQRPSVDGILERLSAVEESTDKKV
modifications: phosphorylated after TSZ
